Here are results for one molecule from patent US20230174633A1, “METHODS AND COMPOSITIONS FOR MODULATING LIPID STORAGE IN ADIPOSE TISSUE” (MEMORIAL SLOAN KETTERING CANCER CENTER, priority 2020, published 2023).

One data set concerns C57B1/6J mice. As to the kind of experiment: Treatment of C57Bl/6J mice fed 45% or 10% lipid diet (diet-induced obesity). In kind it is in vivo, mouse. The settings on record: 1,200 mg PLX5622/kg of food; versus control mice. An excerpt:
(§1) Mice and diets. All experiments on mice were realized in accordance with an animal license issued by the Institutional Review Board (IACUC 15-04-006) from MSKCC. All mice were maintained under SPF conditions. C57B1/6J male mice were purchased from Jackson laboratories. Rosa26^LSL-Tomato (Stock No: 007908), Rosa26^LSL-^YFP (Stock No:006148), Rosa26^mTmG (Stock No: 007576) and Lepr^-/-(db/db) (herein referred to as Lepr^-/-; Stock No: 000697) mice were purchased from Jackson laboratories and bred in house. Csf1r^Cre, Csf1r^MeriCreMer, and Csf1r^fl/fl mice were obtained from J W. Pollard (The University of Edinburgh), Cx3cr1^GFP/+ mice were obtained from Drs. Dan Littman (NYU Skirball institute), Flt3^Cre mice were obtained from Thomas Boehm (Max Planck institute) and Tnfrsf11a^Cre mice were obtained from Y. Kobayashi (Matsumoto Dental University). Ccr2^-/- mice were obtained from IF. Charro (UCSF) Csf1r^-/- mice were backcrossed to FVB/NJ for more than 10 generations. Mice were fed ad libitum a rodent irradiated diet containing 45% kcal from lipids (Research Diets Inc., reference D12451i) or 10% kcal from lipids (Research Diets Inc., reference D12450hi) for 8 weeks. […]
Glucose and insulin tolerance tests were performed as described; in brief, for the glucose tolerance test, the mice were fasted for 4h before experiment, but had water ad libitum. The weight and glycaemia were measured, and the mice were injected intraperitoneally with 2 g glucose (Thermo Scientific) per kg of body weight. Following the glucose injection, glycemia was measured every 30 min for 2 hours. […] The weight and the glycaemia were measured, and the mice were injected with 0.25U insulin (Sigma) per kg of body weight. Following the glucose injection, glycemia was measured every 30 min for 2 hours. […]
Infrared imaging of mice. […] These images were into RAW files and then analyzed in AMIDE. […] The 10% top warmest pixels were used for interscapular and inguinal quantifications. The 20% top warmest pixels were used for dorsal quantifications. […]

The subject of a further data set is Lepr^-/- (db/db) mice. Briefly: PLX5622 treatment of leptin-receptor deficient mice that spontaneously develop obesity. Format: in vivo, mouse. The settings on record: PLX5622 in diet; versus untreated controls.
Text: as §1, with “weeks. In mice supplemented with the CSF-1R inhibitor PLX5622 (Plexxikon), the aforementioned diets were impregnated with 1200 mg of inhibitor per kg of food.” for “weeks.”
Triglyceride Measurement for Mice. […] Triglyceride was then measured using the free glycerol reagent (Sigma; F6428) as described in the manufacturer’s protocol and normalized to the liver weight.
To quantify the size of the adipocytes, the software image J was used. Regions of interest (ROI) were drawn following the cellular membrane of the adipocytes and the surface of the ROI was determined by the software. 50 adipocytes were measured per field of view of the eWAT. Adipocytes were measured on 3 fields of view, taken with N-Achroplan 10x/0.25 objective. Crown-like structures (CLS) were quantified on the same fields of view. […]

Take `COc1ncc(F)cc1CNc1ccc(Cc2c[nH]c3ncc(C)cc23)c(F)n1` [PLX5622]: in the data set on C57B1/6J mice, the ambulatory activity result is on record as “no different”, the fecal caloric density result is given as “no different” and the food intake result was “no different”. Further, in the data set on Lepr^-/- (db/db) mice, the ambulatory activity entry is “did not detectably modify”, the fecal caloric density entry is listed as “did not detectably modify” and the food intake entry was “did not detectably modify”.
